Assay [1] deals with K455A-Prc, catalytically inactive Prc mutant, C-terminally His6-tagged (E. coli) (UniProt P23865). The experiment in a line: co-IP; K455A-Prc-His6 and MltG-HA coexpressed in E. coli; lysate in 20 mM Tris-HCl, 200 mM NaCl, pH 7.5, 2% Triton X-100; IP with anti-His or anti-HA antibody and protein G magnetic beads, 4°C; immunoblot with anti-His and anti-HA.
The target in assay [2] is T1, MltG with a C-terminal HA tag (from pACYC184-MltG-HA) (E. coli) (UniProt P28306).
T1 sequence: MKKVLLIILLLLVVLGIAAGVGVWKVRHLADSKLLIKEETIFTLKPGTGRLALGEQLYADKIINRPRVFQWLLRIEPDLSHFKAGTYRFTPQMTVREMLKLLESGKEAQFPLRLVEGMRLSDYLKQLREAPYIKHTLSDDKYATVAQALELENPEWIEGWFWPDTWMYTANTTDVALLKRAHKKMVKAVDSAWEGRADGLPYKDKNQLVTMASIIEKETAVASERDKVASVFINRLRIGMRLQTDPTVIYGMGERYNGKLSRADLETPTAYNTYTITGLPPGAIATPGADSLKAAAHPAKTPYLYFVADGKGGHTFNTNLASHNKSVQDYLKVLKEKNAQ
The assay is described as above.

No constants are given. Whether binding was seen depends on the method and setting. In cells and extracts the contact can be indirect. Some entries that bind do so weakly or less than the wild type. Sequences can lack the tags named with a protein.

B1: MltG with a C-terminal HA tag (from pACYC184-MltG-HA) (protein, UniProt P28306 1-340)
chain: T1 sequence
Take B1: the binding result in assay [1] is given as “binds”.

B2: K455A-Prc, catalytically inactive Prc mutant, C-terminally His6-tagged (enzyme, UniProt P23865 23-682)
chain: VEDITRADQIPVLKEETQHATVSERVTSRFTRSHYRQFDLDQAFSAKIFDRYLNLLDYSHNVLLASDVEQFAKKKTELGDELRSGKLDVFYDLYNLAQKRRFERYQYALSVLEKPMDFTGNDTYNLDRSKAPWPKNEAELNALWDSKVKFDELSLKLTGKTDKEIRETLTRRYKFAIRRLAQTNSEDVFSLAMTAFAREIDPHTNYLSPRNTEQFNTEMSLSLEGIGAVLQMDDDYTVINSMVAGGPAAKSKAISVGDKIVGVGQTGKPMVDVIGWRLDDVVALIKGPKGSKVRLEILPAGKGTKTRTVTLTRERIRLEDRAVKMSVKTVGKEKVGVLDIPGFYVGLTDDVKVQLQKLEKQNVSSVIIDLRSNGGGALTEAVSLSGLFIPAGPIVQVRDNNGKVREDSDTDGQVFYKGPLVVLVDRFSASASEIFAAAMQDYGRALVVGEPTFGAGTVQQYRSLNRIYDQMLRPEWPALGSVQYTIQKFYRVNGGSTQRKGVTPDIIMPTGNEETETGEKFEDNALPWDSIDAATYVKSGDLTAFEPELLKEHNARIAKDPEFQNIMKDIARFNAMKDKRNIVSLNYAVREKENNEDDATRLARLNERFKREGKPELKKLDDLPKDYQEPDPYLDETVNIALDLAKLEKARPAEQPAPVK
modifications: Dylight 549 NHS ester on amines (array assay only)
For the molecule B2, the binding result in assay [2] was “binds”.

These data come from paper PMC7481392.
